Test results as given in the supplement of paper PMC6411743.
± gives the standard deviation of the averaged measurements. The entries are a selection whose mix differs from that of the whole data set. Most entries show no effect beyond the scatter of the controls.

Sequences of proteins named here, by UniProt entry; tags and fusion partners are left off. A change or cut given only in a name is not applied to a line headed by its entry.
UniProt O95980: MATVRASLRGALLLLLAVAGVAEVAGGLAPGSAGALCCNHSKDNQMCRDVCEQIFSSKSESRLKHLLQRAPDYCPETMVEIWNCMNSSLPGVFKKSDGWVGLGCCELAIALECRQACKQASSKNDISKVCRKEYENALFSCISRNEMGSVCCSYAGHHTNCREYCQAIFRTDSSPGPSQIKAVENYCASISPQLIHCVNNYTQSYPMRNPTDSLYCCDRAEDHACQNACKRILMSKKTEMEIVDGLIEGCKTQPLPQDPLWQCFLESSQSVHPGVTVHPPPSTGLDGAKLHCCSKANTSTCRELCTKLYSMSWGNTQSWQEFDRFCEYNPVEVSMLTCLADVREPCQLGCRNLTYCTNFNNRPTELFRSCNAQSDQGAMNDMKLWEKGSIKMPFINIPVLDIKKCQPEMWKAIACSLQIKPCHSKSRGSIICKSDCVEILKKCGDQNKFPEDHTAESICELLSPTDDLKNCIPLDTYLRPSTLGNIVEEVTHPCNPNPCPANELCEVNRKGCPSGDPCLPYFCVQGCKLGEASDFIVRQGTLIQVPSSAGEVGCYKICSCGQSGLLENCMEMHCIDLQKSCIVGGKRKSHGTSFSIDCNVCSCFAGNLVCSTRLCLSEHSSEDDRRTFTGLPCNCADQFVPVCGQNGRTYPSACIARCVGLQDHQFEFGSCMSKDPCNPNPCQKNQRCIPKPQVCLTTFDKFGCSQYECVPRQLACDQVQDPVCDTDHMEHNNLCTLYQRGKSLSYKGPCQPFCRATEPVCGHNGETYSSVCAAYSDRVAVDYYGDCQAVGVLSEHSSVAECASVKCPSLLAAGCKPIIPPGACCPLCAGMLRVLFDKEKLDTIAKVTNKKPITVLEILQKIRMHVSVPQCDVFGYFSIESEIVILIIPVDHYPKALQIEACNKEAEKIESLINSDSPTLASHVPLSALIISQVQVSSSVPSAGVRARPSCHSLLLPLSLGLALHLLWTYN
UniProt P06737: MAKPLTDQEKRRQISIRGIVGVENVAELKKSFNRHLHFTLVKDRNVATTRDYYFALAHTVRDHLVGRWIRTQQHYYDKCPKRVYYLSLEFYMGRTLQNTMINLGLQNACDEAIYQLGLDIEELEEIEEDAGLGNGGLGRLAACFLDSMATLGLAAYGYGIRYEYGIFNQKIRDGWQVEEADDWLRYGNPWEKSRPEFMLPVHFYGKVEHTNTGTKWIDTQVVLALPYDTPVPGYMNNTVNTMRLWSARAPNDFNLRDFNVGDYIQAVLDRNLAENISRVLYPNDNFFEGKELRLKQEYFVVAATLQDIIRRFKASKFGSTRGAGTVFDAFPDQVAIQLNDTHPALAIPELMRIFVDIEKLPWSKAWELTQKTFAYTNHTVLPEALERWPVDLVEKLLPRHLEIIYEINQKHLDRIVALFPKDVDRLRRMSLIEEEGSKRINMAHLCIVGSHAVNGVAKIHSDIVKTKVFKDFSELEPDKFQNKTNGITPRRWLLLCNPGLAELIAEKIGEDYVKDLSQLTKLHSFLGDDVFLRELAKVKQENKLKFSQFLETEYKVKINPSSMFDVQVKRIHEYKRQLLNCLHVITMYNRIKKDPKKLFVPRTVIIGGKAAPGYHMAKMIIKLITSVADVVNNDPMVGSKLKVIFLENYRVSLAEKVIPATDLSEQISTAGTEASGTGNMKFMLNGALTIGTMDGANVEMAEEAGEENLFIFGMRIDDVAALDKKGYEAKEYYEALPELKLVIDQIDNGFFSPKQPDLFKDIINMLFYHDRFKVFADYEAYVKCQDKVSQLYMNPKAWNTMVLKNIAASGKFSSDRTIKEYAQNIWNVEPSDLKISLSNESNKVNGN
UniProt P12004, whole entry: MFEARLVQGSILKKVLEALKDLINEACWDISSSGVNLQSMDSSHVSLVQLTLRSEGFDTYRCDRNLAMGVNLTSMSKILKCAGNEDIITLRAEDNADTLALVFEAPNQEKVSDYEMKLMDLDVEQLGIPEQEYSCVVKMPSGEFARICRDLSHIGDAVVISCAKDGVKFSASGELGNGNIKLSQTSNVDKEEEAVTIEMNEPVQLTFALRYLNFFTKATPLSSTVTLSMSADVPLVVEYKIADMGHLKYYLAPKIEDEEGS
UniProt P05161, whole entry: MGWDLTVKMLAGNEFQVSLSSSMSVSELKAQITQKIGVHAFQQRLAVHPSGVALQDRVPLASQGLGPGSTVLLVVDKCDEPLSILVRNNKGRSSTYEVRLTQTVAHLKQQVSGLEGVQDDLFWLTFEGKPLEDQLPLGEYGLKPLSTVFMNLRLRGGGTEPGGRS
UniProt P08579, whole entry: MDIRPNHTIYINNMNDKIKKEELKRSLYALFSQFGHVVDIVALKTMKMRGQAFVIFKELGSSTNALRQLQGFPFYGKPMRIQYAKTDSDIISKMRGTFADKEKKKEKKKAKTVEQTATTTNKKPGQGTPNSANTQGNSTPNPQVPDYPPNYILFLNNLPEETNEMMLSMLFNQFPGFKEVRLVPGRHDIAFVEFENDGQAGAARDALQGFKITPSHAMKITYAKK
UniProt P00387: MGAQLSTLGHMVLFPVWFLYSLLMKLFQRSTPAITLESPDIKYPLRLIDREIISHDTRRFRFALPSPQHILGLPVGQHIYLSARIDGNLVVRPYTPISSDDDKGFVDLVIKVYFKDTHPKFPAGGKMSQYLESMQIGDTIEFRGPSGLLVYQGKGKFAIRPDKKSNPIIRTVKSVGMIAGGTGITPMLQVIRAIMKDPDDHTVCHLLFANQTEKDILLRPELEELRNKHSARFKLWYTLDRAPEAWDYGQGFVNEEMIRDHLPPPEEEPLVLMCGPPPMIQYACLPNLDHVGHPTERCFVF
UniProt P11171, whole entry: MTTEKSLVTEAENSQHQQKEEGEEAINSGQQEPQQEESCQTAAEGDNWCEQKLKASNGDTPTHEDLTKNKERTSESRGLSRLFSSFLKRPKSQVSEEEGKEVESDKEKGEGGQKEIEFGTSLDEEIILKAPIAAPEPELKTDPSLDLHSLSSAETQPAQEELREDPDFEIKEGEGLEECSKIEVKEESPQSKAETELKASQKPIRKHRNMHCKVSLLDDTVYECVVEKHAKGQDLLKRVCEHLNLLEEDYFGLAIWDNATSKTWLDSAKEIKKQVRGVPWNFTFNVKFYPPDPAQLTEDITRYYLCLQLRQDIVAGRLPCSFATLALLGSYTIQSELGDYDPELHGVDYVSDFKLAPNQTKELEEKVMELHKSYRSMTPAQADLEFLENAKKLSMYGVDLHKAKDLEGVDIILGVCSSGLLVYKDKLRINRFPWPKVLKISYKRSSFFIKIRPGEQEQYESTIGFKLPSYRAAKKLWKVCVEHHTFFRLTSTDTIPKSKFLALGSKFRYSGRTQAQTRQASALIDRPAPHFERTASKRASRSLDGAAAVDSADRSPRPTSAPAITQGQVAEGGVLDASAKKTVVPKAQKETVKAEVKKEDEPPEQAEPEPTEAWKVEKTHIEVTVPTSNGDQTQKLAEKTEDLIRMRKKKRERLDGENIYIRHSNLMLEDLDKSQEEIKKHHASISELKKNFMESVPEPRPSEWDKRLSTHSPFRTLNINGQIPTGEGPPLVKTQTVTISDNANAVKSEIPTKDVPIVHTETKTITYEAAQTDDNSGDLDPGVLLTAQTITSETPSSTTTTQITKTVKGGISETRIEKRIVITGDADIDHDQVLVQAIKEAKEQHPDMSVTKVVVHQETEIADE
UniProt P13073, whole entry: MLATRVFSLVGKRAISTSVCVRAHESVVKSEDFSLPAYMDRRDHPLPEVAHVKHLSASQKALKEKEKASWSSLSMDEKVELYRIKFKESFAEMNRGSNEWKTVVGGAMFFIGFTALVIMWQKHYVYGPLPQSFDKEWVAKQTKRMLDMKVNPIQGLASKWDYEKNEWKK
UniProt P10599: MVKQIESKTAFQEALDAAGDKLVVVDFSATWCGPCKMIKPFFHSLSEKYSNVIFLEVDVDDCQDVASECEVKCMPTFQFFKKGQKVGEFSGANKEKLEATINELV
UniProt P08243: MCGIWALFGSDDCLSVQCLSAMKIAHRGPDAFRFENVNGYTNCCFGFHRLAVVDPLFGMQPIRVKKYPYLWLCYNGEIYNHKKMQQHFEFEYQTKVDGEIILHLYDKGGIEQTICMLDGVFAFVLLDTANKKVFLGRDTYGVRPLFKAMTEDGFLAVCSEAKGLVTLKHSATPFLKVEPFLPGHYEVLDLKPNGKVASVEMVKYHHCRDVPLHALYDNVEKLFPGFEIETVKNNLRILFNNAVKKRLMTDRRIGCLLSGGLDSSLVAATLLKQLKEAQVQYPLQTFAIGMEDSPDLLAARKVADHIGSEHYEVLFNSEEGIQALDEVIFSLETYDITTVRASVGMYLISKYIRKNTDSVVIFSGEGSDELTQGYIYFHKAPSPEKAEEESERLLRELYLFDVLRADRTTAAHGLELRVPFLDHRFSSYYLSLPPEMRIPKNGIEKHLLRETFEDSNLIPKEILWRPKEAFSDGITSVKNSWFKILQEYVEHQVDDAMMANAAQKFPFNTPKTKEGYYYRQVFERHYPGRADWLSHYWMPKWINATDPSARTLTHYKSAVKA
UniProt P09429: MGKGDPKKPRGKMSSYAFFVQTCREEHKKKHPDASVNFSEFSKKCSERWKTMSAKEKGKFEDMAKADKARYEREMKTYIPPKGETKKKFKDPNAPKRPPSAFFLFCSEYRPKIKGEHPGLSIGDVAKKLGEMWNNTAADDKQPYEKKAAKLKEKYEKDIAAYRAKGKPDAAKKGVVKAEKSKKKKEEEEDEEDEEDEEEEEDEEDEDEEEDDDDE
UniProt O95786: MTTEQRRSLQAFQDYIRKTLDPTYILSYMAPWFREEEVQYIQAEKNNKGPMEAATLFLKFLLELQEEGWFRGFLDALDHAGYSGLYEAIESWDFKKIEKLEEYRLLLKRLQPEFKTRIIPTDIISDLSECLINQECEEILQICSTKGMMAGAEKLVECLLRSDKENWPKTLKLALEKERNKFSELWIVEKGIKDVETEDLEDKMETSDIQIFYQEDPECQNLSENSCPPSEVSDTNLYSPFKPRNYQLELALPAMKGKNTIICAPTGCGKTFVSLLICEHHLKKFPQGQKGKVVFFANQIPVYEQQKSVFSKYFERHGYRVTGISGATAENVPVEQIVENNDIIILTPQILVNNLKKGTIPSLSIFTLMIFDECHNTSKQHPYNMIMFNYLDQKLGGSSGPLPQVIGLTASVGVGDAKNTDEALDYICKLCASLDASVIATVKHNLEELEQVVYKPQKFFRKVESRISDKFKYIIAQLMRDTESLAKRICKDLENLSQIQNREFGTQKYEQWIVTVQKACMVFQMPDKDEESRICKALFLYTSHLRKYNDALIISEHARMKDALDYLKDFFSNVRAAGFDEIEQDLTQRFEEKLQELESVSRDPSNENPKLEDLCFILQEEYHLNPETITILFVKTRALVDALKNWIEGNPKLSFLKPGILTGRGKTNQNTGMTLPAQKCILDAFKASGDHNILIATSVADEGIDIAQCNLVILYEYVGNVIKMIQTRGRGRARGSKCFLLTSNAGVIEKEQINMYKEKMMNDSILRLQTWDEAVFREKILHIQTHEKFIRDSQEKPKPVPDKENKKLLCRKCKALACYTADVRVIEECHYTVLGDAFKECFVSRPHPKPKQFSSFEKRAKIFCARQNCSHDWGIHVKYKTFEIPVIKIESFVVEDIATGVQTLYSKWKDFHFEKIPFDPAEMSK
UniProt P15882: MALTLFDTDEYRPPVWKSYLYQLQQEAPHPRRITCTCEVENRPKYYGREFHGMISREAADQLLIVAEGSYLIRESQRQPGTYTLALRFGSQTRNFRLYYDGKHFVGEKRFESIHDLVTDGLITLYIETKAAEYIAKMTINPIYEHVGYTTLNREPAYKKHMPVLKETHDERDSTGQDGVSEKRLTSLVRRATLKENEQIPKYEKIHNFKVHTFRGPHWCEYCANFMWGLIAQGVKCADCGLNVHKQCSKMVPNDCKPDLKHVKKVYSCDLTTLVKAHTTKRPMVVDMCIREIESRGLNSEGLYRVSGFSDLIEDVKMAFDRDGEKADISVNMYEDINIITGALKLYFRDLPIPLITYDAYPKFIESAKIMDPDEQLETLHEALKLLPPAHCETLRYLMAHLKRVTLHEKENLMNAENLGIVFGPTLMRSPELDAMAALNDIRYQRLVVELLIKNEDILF
UniProt P13804: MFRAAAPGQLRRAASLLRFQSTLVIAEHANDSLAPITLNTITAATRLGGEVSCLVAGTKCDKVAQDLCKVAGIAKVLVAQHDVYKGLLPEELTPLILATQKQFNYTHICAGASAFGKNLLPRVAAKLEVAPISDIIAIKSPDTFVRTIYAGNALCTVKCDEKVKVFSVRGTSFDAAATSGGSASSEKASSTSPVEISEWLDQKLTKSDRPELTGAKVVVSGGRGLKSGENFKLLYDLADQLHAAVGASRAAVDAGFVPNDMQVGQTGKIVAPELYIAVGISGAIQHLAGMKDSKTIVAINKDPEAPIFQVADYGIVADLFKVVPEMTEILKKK

What follows are targets tested with Nc1ncnc2c1ncn2[C@@H]1O[C@H](COP(=O)(O)OP(=O)(O)NP(=O)(O)O)[C@@H](O)[C@H]1O [adenylyl imidodiphosphate] (assay: NP40-soluble protein abundance relative to vehicle (solubility fold change) (ratio); higher = more soluble protein in presence of AMP-PNP). Settings: concentration: 0.5mM.
In short: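 Each value is a fold change relative to the detergent-processed vehicle, calculated per replicate from vsn-normalised intensities. Jurkat crude lysate received eight concentrations (0.1 to 10 mM) for 10 min at room temperature and 3 min at 37 °C, then was solubilised in 0.8% NP40 with benzonase (60 min, 4 °C). The ultracentrifuged supernatant was TMT-labelled and run by LC-MS/MS in three independent experiments.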

Target	NP40-soluble protein abundance
ANXA5 (UniProt P08758)	1.01 ± 0.034
UniProt O95980	0.983 ± 0.018
HMGN2 (UniProt P05204)	1.06 ± 0.22
UniProt P06737 and related entries	1 ± 0.05
PCNA (UniProt P12004)	0.993 ± 0.011
EEF2 (UniProt P13639)	0.995 ± 0.021
P0CG12 and related entries (UniProt P0CG13)	0.979 ± 0.059
UniProt P05161 and related entries	0.999 ± 0.054
SNRPB2 (UniProt P08579)	0.975 ± 0.039
UniProt P01112	1.05 ± 0.033
UniProt P00387 and related entries	0.991 ± 0.094
UniProt P11171 and related entries	0.992 ± 0.011
COX4I1 (UniProt P13073)	1.02 ± 0.0098
TXN (UniProt P10599)	0.996 ± 0.038
UniProt P08243 and related entries	0.996 ± 0.1
HMGB1 (UniProt P09429)	1.11 ± 0.091
HEXB (UniProt P07686)	0.994 ± 0.024
NRAS (UniProt P01111)	0.996 ± 0.07
UniProt P06213-2|P06213	0.997 ± 0.038
UniProt O95786 and related entries	0.97 ± 0.075
UniProt P15882 and related entries	0.968 ± 0.061
ETFA (UniProt P13804)	1.01 ± 0.025

Look-ups from above:
Under NP40-soluble protein abundance, HMGB1 (UniProt P09429) is entered as 1.11 ± 0.091
Under NP40-soluble protein abundance, UniProt P11171 and related entries is entered as 0.992 ± 0.011
